This is an account of results in publication PMC13101370.

Sequences of proteins named here, by UniProt entry; tags and fusion partners are left off.
UniProt Q7Z434: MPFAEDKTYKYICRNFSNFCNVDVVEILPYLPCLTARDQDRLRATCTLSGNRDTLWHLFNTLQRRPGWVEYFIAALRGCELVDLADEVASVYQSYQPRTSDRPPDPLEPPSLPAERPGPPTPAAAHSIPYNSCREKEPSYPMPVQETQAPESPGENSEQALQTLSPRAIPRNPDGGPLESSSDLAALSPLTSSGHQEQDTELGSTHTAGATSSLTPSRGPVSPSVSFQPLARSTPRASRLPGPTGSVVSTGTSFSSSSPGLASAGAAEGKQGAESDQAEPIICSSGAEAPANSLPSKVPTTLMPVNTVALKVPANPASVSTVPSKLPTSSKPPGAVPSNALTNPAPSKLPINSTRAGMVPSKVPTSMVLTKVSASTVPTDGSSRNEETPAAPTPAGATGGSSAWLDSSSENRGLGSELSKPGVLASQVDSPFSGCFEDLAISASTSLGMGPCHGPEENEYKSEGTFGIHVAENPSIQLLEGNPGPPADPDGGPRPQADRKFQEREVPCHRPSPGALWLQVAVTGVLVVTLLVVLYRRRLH
UniProt Q14258: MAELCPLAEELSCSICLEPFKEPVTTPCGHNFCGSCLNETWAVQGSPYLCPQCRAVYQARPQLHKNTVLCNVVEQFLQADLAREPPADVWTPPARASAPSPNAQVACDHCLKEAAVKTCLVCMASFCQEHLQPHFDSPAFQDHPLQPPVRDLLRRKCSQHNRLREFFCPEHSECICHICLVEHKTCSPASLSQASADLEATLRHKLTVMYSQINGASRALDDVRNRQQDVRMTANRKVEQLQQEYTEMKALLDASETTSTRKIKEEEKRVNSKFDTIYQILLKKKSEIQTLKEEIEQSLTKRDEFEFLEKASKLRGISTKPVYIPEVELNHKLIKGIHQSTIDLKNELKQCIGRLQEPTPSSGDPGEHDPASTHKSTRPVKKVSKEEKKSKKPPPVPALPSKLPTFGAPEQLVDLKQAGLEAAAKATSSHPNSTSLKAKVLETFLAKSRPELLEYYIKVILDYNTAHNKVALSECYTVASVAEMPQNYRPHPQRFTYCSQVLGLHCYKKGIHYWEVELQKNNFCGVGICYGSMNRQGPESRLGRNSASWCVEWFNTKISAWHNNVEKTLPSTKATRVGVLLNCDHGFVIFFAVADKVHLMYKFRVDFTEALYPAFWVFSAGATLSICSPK

In the assay the target is Mitochondrial antiviral signaling protein (MAVS) (UniProt Q7Z434). Briefly: co-IP; 293 T cells transfected with various combinations of plasmids and treated with or without FyHj-SER for 24 h; immunoblot of the immunoprecipitated samples; bait and antibody not told.

These are yes or no findings as the source states them, for the method shown. Binding seen in cells or lysates may run through a third protein. Some binding calls cover weakened binding; strength is not graded here.

With “Tripartite motif-containing protein 25 (TRIM25) (from UniProt Q14258 1-630) (enzyme)”, the binding entry is “binds”.
